# Primary screen of a compound library

Chains of the proteins cited; added tags and fusions are not shown. Residues count along the entry.
UniProt A4I591, 1-473: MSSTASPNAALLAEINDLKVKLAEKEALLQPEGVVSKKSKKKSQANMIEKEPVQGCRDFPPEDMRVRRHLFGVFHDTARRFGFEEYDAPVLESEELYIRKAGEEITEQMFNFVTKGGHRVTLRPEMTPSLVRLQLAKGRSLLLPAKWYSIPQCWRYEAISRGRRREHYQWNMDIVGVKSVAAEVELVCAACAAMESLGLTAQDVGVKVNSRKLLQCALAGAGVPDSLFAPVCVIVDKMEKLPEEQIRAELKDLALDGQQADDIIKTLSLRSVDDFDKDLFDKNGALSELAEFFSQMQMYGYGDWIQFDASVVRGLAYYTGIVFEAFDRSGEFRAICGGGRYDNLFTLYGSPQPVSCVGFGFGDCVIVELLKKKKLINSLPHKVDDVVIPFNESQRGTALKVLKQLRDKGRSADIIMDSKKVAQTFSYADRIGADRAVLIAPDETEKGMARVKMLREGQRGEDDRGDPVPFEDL
UniProt I6X8D2, whole entry: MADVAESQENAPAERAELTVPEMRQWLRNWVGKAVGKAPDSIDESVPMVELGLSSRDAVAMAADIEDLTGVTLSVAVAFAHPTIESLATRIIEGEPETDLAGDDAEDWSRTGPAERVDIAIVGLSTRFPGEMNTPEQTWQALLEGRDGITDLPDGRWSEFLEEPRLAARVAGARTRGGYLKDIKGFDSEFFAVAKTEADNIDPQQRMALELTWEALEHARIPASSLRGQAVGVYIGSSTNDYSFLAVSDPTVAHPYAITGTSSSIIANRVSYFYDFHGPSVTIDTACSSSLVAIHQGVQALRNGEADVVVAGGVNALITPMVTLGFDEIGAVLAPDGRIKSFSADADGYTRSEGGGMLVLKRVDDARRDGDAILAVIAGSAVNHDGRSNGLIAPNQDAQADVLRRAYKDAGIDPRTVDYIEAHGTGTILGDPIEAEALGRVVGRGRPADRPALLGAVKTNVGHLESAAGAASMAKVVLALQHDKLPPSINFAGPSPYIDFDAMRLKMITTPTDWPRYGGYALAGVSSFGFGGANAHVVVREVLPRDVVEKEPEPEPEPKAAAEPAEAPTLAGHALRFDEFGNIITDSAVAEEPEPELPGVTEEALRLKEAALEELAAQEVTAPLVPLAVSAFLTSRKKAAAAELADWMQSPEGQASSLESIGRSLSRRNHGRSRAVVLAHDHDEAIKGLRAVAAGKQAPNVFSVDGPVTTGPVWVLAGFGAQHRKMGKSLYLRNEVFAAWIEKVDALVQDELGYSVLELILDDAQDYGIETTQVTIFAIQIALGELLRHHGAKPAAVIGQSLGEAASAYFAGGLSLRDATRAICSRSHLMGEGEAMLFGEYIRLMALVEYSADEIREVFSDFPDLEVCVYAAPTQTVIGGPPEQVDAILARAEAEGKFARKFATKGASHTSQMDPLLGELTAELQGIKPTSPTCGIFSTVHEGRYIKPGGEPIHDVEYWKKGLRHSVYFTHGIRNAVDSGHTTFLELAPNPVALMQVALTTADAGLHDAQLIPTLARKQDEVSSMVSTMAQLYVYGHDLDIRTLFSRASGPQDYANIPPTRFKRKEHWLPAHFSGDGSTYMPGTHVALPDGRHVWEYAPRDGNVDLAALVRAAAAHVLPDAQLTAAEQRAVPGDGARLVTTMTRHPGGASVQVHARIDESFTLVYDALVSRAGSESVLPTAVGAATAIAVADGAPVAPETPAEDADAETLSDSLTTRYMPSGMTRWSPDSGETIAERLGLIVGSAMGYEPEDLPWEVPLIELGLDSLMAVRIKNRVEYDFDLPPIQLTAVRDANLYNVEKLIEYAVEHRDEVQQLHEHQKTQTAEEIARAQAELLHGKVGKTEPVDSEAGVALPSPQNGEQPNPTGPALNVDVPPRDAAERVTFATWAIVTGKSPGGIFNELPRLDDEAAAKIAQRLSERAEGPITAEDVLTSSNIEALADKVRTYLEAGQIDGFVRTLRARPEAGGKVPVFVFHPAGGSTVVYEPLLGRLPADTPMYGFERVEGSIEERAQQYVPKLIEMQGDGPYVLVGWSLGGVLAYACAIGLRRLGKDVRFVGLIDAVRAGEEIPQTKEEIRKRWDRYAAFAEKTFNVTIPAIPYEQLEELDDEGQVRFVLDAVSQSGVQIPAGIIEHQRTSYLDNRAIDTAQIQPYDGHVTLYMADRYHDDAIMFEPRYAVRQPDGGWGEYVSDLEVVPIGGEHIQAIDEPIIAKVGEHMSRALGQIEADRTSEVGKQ

The filed quantity is “Percent Effect” (%). The controls that fix the scale are not given in the record; negative values are as filed. The compounds are a random part of those screened. Two or more numbers in one place are separate tests of the same structure; such repeats can differ widely. A dash means the value is not listed here; it may have been measured.

A: 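Histidine-tRNA ligase, Leishmania infantum (UniProt A4I591). Enzyme assay of histidyl-tRNA synthetase; the read-out is not stated. Compounds at 30 µM. Direction is inferred from retests: higher values go with stronger inhibition. The assay is labelled LdHisRS but filed under L. infantum. Of about 69,000 compounds tested this way, about 410 (0.6%) reached 50% or more in at least one test.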
B: 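Polyketide synthase Pks13, Mycobacterium tuberculosis (UniProt I6X8D2). Enzyme assay of the thioesterase domain of polyketide synthase 13; the read-out is not stated. Compounds at 30 µM. The record gives no direction; the compounds picked for IC50 retests had high values, so higher reads as stronger inhibition. Of about 67,000 compounds tested this way, about 300 (0.46%) reached 50% or more in at least one test.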
C: 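Cell assay of Leishmania donovani living inside macrophages; the read-out is not stated. Tested at 30 µM. Higher reads as stronger inhibition (inferred: compounds with an IC50 in retests scored well above the rest). Of about 69,000 compounds tested this way, about 1,000 (1.5%) reached 50% or more in at least one test.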

| compound | A | B | C |
|---|---|---|---|
| `O=S1(=O)NCC2(CCCN(Cc3ccccn3)C2)Oc2ncccc21` (stereo not shown) | 0% | -15.33% | -21.52% |
| `FC(F)(F)C1CN(c2nc(-c3ccccc3)no2)CCO1` (stereo not shown) | 6.667% | -7.68% | 8.02% |
| `CN(Cc1nnc(-c2cccs2)o1)Cc1nc2c(s1)CCCC2` | 8.824% | -28.54% | 22.27% |
| `Cc1ccc(C(=O)N2CCN(S(C)(=O)=O)CC2)cc1N1CCNC1=O` | 24.27% | -16.61% | 17.16% |
| `CC(C)N1CCc2c(c(COc3cncnc3)nn2CC2CC2)C1` | 8.772% | -44.38% | - |
| `Cc1nc(CN(C)Cc2cc3c(cc2OC(F)F)OCO3)cs1` | 7.692% | -4.367% | -42.97% & -18.52% |
| `O=C(COc1coc(CN2CCCC2)cc1=O)NCc1ccccc1Cl` | 7.767% | -32.89% | 7.986% |
| `[H][C@]12CN(C(=O)c3ccno3)CCN1C(=O)N(Cc1ccc(OC)cc1)C2` | - | - | -164.5% |
| `CCc1ncc2c(n1)CN(Cc1nc(-c3ccsc3)no1)CC2` | 19.7% | -11.75% | 19.14% |
| `Cc1cc(N2CCC(N3CCOCC3)C2)n2nc(C)c(C)c2n1` (stereo not shown) | 16.13% | -14.61% | 34.12% |
| `O=c1c2sccc2ncn1Cc1cc(C2CC2)[nH]n1` | 1.399% | -18.01% | 19.07% |
| `Cc1cnn(CC2CCCCN2C(=O)CCCc2nc(C)no2)c1` (stereo not shown) | 12.82% | 1.308% | 6.416% & 12.89% |
| `Cn1nc(C2CCCN(Cc3ccc(F)cc3F)C2)c2nccnc21` (stereo not shown) | -3.125% | 4.438% | -3.845% |
| `Cc1ncncc1C(=O)N1CCCC(Cc2nccs2)C1` (stereo not shown) | 11.43% | 7.789% | 9.508% & 8.849% |
| `Cn1cc(C2COC3(CCN(C(=O)Cn4cccn4)CC3)C2)cn1` (stereo not shown) | 19.55% | -35.85% | 27.85% |
| `CCOCCN1CCN(c2ccc(C#N)cn2)CC1CC` (stereo not shown) | 5.882% | -1.91% | 26.65% |
| `O=C(O)C(F)(F)F.O=C(c1ncccn1)N1CCC2(CC1)COC(COc1ccccn1)C2` (stereo not shown) | - | - | 18.34% |
| `CCc1sc(C(=O)Nc2cnn(CC(=O)NC3CC3)c2)cc1C` | 15.87% | -50.4% | 12.32% |
| `O=C(c1sccc1C1CC1)N1CCN(c2ncccn2)CC1` | -6.306% | 5.868% | 3.073% |
| `Fc1ccccc1-c1nnn(CCCc2nn[nH]n2)n1` | 5.357% | 9.775% | -11.15% |
| `CCc1nc(CN2CCCCC2C(N)=O)cs1` (stereo not shown) | 26.58% | -28.83% | 18.66% |
| `COc1ccc2c(ccn2CCCN)c1.O=C(O)C(=O)O` | - | - | 20.3% |
| `CCn1nccc1CNC(=O)C1CCC1` | 7.08% | -16.4% | 2.801% |
| `CCc1nc(C(=O)N(C)CC(=O)N(C)C)nn1-c1ccccc1Cl` | -0.885% | 5.791% | -6.125% |
| `COCCN1CCC(CNC(=O)C2(c3ccc(F)cc3)CCC2)CC1` | -0.8929% | -12.17% | 36.26% |
| `CC(C)NC(=O)C1CN(C(=O)Cc2ccccc2)CC12CCOCC2` (stereo not shown) | 7.692% | -8.17% | 44.05% |
| `CNC(=O)N1C[C@H]2N(c3ncccn3)CCC[C@@]2(C(=O)NCC2CC2)C1` | 8.182% | -21.99% | - |
| `O=C(O)C(F)(F)F.[H][C@@]12CCN(Cc3ccoc3)C[C@]1([H])OCCN(c1ccccc1)C2=O` | - | - | 1.174% |
| `N#Cc1cccc(CN2CCO[C@@H]3CNC[C@@H]32)c1` | 23.08% | -26.82% | - |
| `Cc1ccc(N2C(=O)N[C@@H]3CCN(C(=O)C4CC4)[C@@H]3C2=O)cc1` | 25% | - | - |
| `O=C(CN1CCCc2c(F)cc(Br)cc21)N1CCN(C(=O)C2CC2)CC1` | 22.22% | -20.02% | 14.12% |
| `COCc1cc(NCCCSc2nnc(C)s2)ncn1` | 3.333% | -3.6% | 26.84% |
| `[H][C@@]12COC[C@]1([H])[C@H](N(CC)CC)CN2Cc1cnn(C)c1` | - | - | -4.816% |
| `Cc1ccccc1OCCC(=O)N1CCC(c2nncn2C)CC1` | 7.143% | 6.102% | -35.56% |
| `CC(=O)Nc1nc(CN2CCOC(Cn3cncn3)C2)cs1` (stereo not shown) | -0.885% | -17.51% | 21.2% |
| `Cc1cc2cc(C(=O)N[C@@H]3CC[C@@H](N4CCNC(=O)C4)[C@@H]3O)ccc2o1` | 4.348% | - | -3.923% & 2.849% |
| `Cc1cccc(CN2C[C@H](OCc3ccccn3)[C@H]3COC[C@H]32)n1` | 2.727% | -11.56% | - |
| `[H][C@@]12CN(Cc3ccsc3)CCO[C@]1([H])CN(Cc1cc(C)on1)C2` | - | - | 25.94% |
| `O=C(c1ncccn1)N1C[C@@H]2COC[C@]2(c2nnc(C3CC3)o2)C1` | 20.55% | -15.82% | - |
| `CC(NC(=O)c1cccs1)C(=O)NS(=O)(=O)Cc1ccc(C#N)cc1` (stereo not shown) | 8.889% | -14.45% | -6.368% |

Some entries from above, unchanged:

{"compound": "O=C(CN1CCCc2c(F)cc(Br)cc21)N1CCN(C(=O)C2CC2)CC1", "A": 22.22, "B": -20.02, "C": 14.12}
{"compound": "COc1ccc2c(ccn2CCCN)c1.O=C(O)C(=O)O", "C": 20.3}
{"compound": "N#Cc1cccc(CN2CCO[C@@H]3CNC[C@@H]32)c1", "A": 23.08, "B": -26.82}

Measurements from “University of Dundee, Small-Polar-MMV Screening Library” (2021), ChEMBL document CHEMBL3988442.